The text below walks through data of publication PMC7819943, “Rice protein-binding microarrays: a tool to detect cis-acting elements near promoter regions in rice”.

Sequences of proteins named here, by UniProt entry; tags and fusion partners are left off.
UniProt Q0JBA9, entry or part of it: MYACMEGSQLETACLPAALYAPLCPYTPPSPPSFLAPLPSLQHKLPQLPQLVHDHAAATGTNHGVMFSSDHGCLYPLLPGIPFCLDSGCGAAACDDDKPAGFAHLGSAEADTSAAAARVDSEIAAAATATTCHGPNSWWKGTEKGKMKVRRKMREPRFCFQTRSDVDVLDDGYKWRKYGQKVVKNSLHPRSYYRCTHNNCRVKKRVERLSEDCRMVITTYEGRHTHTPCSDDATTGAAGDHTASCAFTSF

The other results are listed elsewhere or left out.

This assay addresses OsWRKY34 (Oryza sativa, UniProt Q0JBA9 1-250). The assay is described as follows: protein-binding microarray (RPBM); PBS, 2% BSA, 51.3 ng/ul salmon testes DNA, 50 uM zinc acetate, 200 nM TF, 25 C, 1 h; high values mean tight binding. The conditions noted are these: protein: recombinant; tags: N-terminal polyhistidine and DsRed monomer fusion (pET32a); label: CyDye5-dUTP incorporated in the synthesized complementary strand; 3' TTTTT single-stranded linker to array surface; dsDNA, one strand shown. The gist of the method: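 The binding signal is fluorescence intensity per array feature (arbitrary units). Readings came from an Axon 4000B scanner after a washed, 2% BSA-blocked, double-stranded custom Agilent array had been incubated for 1 h at 25 °C with 200 nM protein and 50 µM zinc acetate. The protein was a Ni–NTA-purified transcription factor fused N-terminally to polyhistidine and DsRed, expressed in E. coli BL21-CodonPlus.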
For the sequence “ACACGTCATGCTTCTCCTCTCTCTCTTTGTCCTTGCATAGCGGAGTCACCTAGTGCAG”, the binding signal is 10800 fluorescence intensity (a.u.). The figure for “ATTAATTAGGGGTATTTTGGTTCTTTTATATTCACCTCGACGGAGTCACCTAGTGCAG” is 9260 fluorescence intensity (a.u.). With “TATTGGTTTTTTCTGAGCGCCCATGACGACCGGAACACGTCGGAGTCACCTAGTGCAG”, the binding signal is 8160 fluorescence intensity (a.u.). Then “GAGCAGCATAAAATCCACCTCTCCGATGTCACTGCTTTCCCGGAGTCACCTAGTGCAG”, with 8020 fluorescence intensity (a.u.); and “AGATTCCGCTTCCATTTCCACCAACCGCGCAAGATACAGGCGGAGTCACCTAGTGCAG”, with 8150 fluorescence intensity (a.u.). For the sequence “AACGAGACAAACGACAGCACGCTTCCTCTTCTGCACCTACCGGAGTCACCTAGTGCAG”, the binding signal was 8870 fluorescence intensity (a.u.). On to “GGCTATCGTATACACTTGCAAGTACATAATTTATTTTTATCGGAGTCACCTAGTGCAG”, for which the binding signal is 8340 fluorescence intensity (a.u.). The figure for “ACCTTATCATCTCTCCATTCGCCATCGAGCCCGCCGGAGGCGGAGTCACCTAGTGCAG” is 8070 fluorescence intensity (a.u.); for “CTAAAGTTAAGTCACTGATGTAAACACCACCTTTGTCTCTCGGAGTCACCTAGTGCAG” it is 8570 fluorescence intensity (a.u.). The figure for “GAACATCGCGACCGTCCGTGTCTTGATCGGACGTTTCAGACGGAGTCACCTAGTGCAG” is 9620 fluorescence intensity (a.u.). Then “CAGCCATCGCCTCCCCGACTCCCGTCGTTGTCCACCCCGTCGGAGTCACCTAGTGCAG”, with 8260 fluorescence intensity (a.u.). Turning to “CTGCTAATCACGTTTTAGTTCGAATTAATGCCATCCACTCCGGAGTCACCTAGTGCAG”, the binding signal is 8030 fluorescence intensity (a.u.). The figure for “CACCGTTGTTTGCATACTCCCACTGTCCCACATCTCATCGCGGAGTCACCTAGTGCAG” is 14200 fluorescence intensity (a.u.).

As for “AACTTTATTTACGCGGTTCAATTCTTCGATCGCAAGGTATCGGAGTCACCTAGTGCAG”, the binding signal is 9200 fluorescence intensity (a.u.).

Take “ACAGCTCTGCTCAACCTTGCCATCTCGATCAATCGATCCTCGGAGTCACCTAGTGCAG”: the binding signal was 11400 fluorescence intensity (a.u.).

Consider “AAACACACATGTTCTTTTGTTTTTTTTGTATGGGGACAAACGGAGTCACCTAGTGCAG”, for which the binding signal was 8170 fluorescence intensity (a.u.). The figure for “TGGCAAGAGGATATTTTATGGATTTCTTTGTTGATTTTATCGGAGTCACCTAGTGCAG” is 8660 fluorescence intensity (a.u.). Then “ACCAAACCCACGGCCTGGCCCACTGTCAGTACTAAGATAGCGGAGTCACCTAGTGCAG”, with 9120 fluorescence intensity (a.u.); and “CGCCGCCTTTTGTCTCCTTTTCCGGTTCTCTCCTCTGTCGCGGAGTCACCTAGTGCAG”, with 9720 fluorescence intensity (a.u.); and “GCCCCTCGCTTTTGATTAGTTACGTGCCGGTCCCCACTACCGGAGTCACCTAGTGCAG”, with 9890 fluorescence intensity (a.u.). The figure for “TGTTCTTATCCAGTTGACTTTGTGTTTTTCGCCAACGAGGCGGAGTCACCTAGTGCAG” is 8500 fluorescence intensity (a.u.); for “GGTGGAGGAGGTGGGCGGGGAAAGCGGCGACGTGAGGCGGCGGAGTCACCTAGTGCAG” it is 14400 fluorescence intensity (a.u.).

In the case of “GCGAATCATAACGACTACACGTTTCACAATTGGATCATTTCGGAGTCACCTAGTGCAG”, the binding signal is 15000 fluorescence intensity (a.u.). As for “CGGCCCCTCACACCACCACCTCCGCTCCAGCGCGCACACTCGGAGTCACCTAGTGCAG”, the binding signal was 9990 fluorescence intensity (a.u.). In the case of “CTCCGGCGCTCCACATCCCTCCACCGATTCTTCTGGTGACCGGAGTCACCTAGTGCAG”, the binding signal was 8400 fluorescence intensity (a.u.). The figure for “CCTTTTTCAGTTATGGTTTCCCTCAGGCTGGCAGTTGTGTCGGAGTCACCTAGTGCAG” is 8160 fluorescence intensity (a.u.); for “CTCCTACTACCCAATACGACTACTACTAGTTTTCTTTCTTCGGAGTCACCTAGTGCAG” it is 9470 fluorescence intensity (a.u.). Then “CTGCTTTTCATAGATTGAATGTTGCATACTGTATATGGGGCGGAGTCACCTAGTGCAG”, with 8920 fluorescence intensity (a.u.); and “GCTGCTTGTCTTCCACTTCTCTTCTGGAATGCATGTGATTCGGAGTCACCTAGTGCAG”, with 8670 fluorescence intensity (a.u.); and “AAATGAATGGATGGTGAAGTTTTTGTTCTTTGTATTTGAACGGAGTCACCTAGTGCAG”, with 8840 fluorescence intensity (a.u.).

As to “GCCTACTTAAATTACATTTCCGCACCCACACCACACACACCGGAGTCACCTAGTGCAG”, the binding signal is 11400 fluorescence intensity (a.u.).

Regarding “CCGCTGCCTCCGCTCCGCCGCCATGCTCGCCCACTGTCTGCGGAGTCACCTAGTGCAG”, the binding signal is 9850 fluorescence intensity (a.u.). Then “GGTGGAGACGGGGTGGAGGAAGGCGACGAGGAGGTGCAGGCGGAGTCACCTAGTGCAG”, with 8240 fluorescence intensity (a.u.). On to “CCTTCTCGGGCTTTGTTGTACGTATGCGTCTCGTGTTGGGCGGAGTCACCTAGTGCAG”, for which the binding signal was 8780 fluorescence intensity (a.u.). The figure for “TCCTACCTCCACTTCTTCTTTCTTCCACAAAGCCCATTCCCGGAGTCACCTAGTGCAG” is 8090 fluorescence intensity (a.u.). Then “TCTACTGTTATCCTTGCTATCGCGGTCTTTTACCCTCATGCGGAGTCACCTAGTGCAG”, with 8500 fluorescence intensity (a.u.); and “CCCTGTGCTTGTTGTTCATAGCAACTTCAATTCGATCACACGGAGTCACCTAGTGCAG”, with 8310 fluorescence intensity (a.u.). As for “TTTTAGTTGTTGATTTCTTGATTAAATTTGTTAGTTTAACCGGAGTCACCTAGTGCAG”, the binding signal was 8460 fluorescence intensity (a.u.). Then “TGCAGTATCTGCCGTTCGTATCGCTGCGTTGAATCTTCCACGGAGTCACCTAGTGCAG”, with 9720 fluorescence intensity (a.u.). The figure for “CGCTCGATTAGTGATTACCCGCTCAAACTCCCGCAACGTTCGGAGTCACCTAGTGCAG” is 9830 fluorescence intensity (a.u.); for “GTCATAGTGTACCCTTCTGCAAGCTCCTCGTGTCCATCTGCGGAGTCACCTAGTGCAG” it is 9580 fluorescence intensity (a.u.); for “GGTAGATTTCTCTTTTTTTTTTCTCTCGTACGTAAGTTTCCGGAGTCACCTAGTGCAG” it is 8650 fluorescence intensity (a.u.). Then “GTGAGTGTCCGCACTAGGGTGGGGAAGCTTCGTGGCGGGACGGAGTCACCTAGTGCAG”, with 9270 fluorescence intensity (a.u.). As to “GTATTAGGCCATGCCTCTGGTATTCCTTTGCATTTCGATCCGGAGTCACCTAGTGCAG”, the binding signal was 8580 fluorescence intensity (a.u.). The figure for “TCTCGCTTGCAATGCTTATCCTATCAATCAATTCCTTCTTCGGAGTCACCTAGTGCAG” is 9080 fluorescence intensity (a.u.); for “TCGCCCTTCGTCTCCGCCTCCGTCGCCTCCATCTCGCCGCCGGAGTCACCTAGTGCAG” it is 12200 fluorescence intensity (a.u.); for “GGTCGTTCATTTCTGCTCGTTGGATTAAAACAAAAATGTCCGGAGTCACCTAGTGCAG” it is 8360 fluorescence intensity (a.u.). With “CCGGTGAGCAATTCCAAACCTACTAGCTGATTTTGTCATTCGGAGTCACCTAGTGCAG”, the binding signal was 8160 fluorescence intensity (a.u.). Then “CGCGAGGACGCGGAGCTCGCTGAGGTTGGGGTTGTGGCGCCGGAGTCACCTAGTGCAG”, with 8470 fluorescence intensity (a.u.); and “ATATAAAGCTCGCCCCGTCTCCGCCTCGGCTTACCATTCACGGAGTCACCTAGTGCAG”, with 11800 fluorescence intensity (a.u.).

For “TTCTAGCATTGCCCGCATTCATATATATGTTAATGAATCTCGGAGTCACCTAGTGCAG”, the binding signal was 8920 fluorescence intensity (a.u.). The figure for “TTTATGCGCCAGGTTGTTATCTCGCACACTTGTTCTTTAGCGGAGTCACCTAGTGCAG” is 9990 fluorescence intensity (a.u.); for “TGGGAGACTCGGACTCGCGGCGTTTGTTTTCTTTCAGCTTCGGAGTCACCTAGTGCAG” it is 9530 fluorescence intensity (a.u.).

“GCTCGCCGGCGACCTCCTCCGACCACCTCGGCCACCACTCCGGAGTCACCTAGTGCAG”: the binding signal is 10900 fluorescence intensity (a.u.).
